{"sequences": {"note": "Chains of the proteins cited; added tags and fusions are not shown. Lines headed by an entry give the natural chain unless they say otherwise; changes in a name come on top.", "UniProt Q5SW79": "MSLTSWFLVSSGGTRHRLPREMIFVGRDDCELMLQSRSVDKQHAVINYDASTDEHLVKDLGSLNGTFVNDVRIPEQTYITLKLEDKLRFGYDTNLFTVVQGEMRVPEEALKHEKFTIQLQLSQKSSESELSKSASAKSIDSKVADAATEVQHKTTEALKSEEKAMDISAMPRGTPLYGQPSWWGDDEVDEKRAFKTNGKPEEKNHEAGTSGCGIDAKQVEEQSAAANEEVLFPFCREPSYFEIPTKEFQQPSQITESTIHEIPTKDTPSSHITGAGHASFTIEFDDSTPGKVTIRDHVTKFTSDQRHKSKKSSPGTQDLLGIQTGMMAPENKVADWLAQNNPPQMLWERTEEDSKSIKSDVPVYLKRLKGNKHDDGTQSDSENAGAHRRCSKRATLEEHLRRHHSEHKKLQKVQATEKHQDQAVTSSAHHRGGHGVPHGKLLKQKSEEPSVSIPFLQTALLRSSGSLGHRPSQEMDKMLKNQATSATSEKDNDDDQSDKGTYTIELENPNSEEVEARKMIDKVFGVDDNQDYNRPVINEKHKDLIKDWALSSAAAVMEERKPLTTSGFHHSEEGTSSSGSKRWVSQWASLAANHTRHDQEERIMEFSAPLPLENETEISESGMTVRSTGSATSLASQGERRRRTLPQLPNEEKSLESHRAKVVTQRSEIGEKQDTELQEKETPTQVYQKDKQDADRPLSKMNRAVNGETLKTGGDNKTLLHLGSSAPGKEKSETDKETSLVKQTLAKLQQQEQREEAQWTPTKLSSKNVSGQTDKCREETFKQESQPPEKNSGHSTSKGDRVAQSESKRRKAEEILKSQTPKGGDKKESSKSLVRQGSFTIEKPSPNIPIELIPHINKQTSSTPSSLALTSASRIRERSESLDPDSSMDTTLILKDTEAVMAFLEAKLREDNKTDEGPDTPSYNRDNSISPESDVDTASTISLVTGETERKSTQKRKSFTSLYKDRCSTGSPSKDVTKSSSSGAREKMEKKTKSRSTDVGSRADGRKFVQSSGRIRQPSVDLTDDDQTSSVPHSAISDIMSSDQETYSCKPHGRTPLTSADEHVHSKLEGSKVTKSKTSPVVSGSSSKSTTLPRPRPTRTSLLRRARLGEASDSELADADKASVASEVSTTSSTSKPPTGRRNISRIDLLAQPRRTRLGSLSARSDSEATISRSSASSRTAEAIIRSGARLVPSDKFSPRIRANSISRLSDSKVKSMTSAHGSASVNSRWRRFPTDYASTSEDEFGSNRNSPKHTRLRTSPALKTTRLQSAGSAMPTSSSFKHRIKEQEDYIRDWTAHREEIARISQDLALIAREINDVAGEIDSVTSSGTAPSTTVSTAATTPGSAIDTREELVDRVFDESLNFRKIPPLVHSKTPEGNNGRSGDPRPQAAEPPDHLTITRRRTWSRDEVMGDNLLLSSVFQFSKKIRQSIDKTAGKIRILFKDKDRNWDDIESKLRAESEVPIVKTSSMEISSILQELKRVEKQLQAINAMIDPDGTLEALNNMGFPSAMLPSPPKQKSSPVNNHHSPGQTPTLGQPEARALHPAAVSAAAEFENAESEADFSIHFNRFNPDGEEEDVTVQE", "UniProt Q53EZ4": "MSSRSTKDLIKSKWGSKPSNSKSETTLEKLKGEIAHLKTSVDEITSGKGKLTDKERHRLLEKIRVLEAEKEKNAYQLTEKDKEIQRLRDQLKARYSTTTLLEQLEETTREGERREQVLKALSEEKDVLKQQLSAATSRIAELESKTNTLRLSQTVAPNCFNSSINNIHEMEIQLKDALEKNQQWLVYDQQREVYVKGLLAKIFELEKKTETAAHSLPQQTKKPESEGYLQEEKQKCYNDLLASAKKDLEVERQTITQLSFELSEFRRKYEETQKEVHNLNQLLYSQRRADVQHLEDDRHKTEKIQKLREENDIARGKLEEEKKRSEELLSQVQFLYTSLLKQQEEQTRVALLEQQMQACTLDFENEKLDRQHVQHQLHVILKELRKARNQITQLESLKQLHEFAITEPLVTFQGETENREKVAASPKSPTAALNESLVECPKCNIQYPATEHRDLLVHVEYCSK", "UniProt P30260, whole entry, looked up": "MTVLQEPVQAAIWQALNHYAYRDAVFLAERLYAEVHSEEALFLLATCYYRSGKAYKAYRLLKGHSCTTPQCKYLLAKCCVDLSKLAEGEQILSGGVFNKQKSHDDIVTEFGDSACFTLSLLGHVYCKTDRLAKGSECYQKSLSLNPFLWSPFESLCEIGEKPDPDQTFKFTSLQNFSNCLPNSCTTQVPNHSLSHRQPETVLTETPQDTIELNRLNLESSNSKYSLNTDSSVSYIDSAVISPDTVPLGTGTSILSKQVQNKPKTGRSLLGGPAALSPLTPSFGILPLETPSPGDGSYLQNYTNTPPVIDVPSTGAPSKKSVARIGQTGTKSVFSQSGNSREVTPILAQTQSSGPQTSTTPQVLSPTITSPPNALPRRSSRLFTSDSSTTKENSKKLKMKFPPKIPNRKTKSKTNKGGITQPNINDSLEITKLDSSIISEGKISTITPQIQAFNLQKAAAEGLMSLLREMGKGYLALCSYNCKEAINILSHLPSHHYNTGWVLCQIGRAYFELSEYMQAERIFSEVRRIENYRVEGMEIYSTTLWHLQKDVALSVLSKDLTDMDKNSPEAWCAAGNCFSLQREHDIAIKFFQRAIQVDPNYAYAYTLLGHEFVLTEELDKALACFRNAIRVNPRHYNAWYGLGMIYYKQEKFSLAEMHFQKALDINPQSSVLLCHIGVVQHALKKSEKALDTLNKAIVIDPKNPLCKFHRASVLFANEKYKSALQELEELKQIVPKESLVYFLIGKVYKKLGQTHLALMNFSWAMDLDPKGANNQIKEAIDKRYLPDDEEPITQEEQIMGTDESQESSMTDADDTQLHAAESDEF", "UniProt P49454": "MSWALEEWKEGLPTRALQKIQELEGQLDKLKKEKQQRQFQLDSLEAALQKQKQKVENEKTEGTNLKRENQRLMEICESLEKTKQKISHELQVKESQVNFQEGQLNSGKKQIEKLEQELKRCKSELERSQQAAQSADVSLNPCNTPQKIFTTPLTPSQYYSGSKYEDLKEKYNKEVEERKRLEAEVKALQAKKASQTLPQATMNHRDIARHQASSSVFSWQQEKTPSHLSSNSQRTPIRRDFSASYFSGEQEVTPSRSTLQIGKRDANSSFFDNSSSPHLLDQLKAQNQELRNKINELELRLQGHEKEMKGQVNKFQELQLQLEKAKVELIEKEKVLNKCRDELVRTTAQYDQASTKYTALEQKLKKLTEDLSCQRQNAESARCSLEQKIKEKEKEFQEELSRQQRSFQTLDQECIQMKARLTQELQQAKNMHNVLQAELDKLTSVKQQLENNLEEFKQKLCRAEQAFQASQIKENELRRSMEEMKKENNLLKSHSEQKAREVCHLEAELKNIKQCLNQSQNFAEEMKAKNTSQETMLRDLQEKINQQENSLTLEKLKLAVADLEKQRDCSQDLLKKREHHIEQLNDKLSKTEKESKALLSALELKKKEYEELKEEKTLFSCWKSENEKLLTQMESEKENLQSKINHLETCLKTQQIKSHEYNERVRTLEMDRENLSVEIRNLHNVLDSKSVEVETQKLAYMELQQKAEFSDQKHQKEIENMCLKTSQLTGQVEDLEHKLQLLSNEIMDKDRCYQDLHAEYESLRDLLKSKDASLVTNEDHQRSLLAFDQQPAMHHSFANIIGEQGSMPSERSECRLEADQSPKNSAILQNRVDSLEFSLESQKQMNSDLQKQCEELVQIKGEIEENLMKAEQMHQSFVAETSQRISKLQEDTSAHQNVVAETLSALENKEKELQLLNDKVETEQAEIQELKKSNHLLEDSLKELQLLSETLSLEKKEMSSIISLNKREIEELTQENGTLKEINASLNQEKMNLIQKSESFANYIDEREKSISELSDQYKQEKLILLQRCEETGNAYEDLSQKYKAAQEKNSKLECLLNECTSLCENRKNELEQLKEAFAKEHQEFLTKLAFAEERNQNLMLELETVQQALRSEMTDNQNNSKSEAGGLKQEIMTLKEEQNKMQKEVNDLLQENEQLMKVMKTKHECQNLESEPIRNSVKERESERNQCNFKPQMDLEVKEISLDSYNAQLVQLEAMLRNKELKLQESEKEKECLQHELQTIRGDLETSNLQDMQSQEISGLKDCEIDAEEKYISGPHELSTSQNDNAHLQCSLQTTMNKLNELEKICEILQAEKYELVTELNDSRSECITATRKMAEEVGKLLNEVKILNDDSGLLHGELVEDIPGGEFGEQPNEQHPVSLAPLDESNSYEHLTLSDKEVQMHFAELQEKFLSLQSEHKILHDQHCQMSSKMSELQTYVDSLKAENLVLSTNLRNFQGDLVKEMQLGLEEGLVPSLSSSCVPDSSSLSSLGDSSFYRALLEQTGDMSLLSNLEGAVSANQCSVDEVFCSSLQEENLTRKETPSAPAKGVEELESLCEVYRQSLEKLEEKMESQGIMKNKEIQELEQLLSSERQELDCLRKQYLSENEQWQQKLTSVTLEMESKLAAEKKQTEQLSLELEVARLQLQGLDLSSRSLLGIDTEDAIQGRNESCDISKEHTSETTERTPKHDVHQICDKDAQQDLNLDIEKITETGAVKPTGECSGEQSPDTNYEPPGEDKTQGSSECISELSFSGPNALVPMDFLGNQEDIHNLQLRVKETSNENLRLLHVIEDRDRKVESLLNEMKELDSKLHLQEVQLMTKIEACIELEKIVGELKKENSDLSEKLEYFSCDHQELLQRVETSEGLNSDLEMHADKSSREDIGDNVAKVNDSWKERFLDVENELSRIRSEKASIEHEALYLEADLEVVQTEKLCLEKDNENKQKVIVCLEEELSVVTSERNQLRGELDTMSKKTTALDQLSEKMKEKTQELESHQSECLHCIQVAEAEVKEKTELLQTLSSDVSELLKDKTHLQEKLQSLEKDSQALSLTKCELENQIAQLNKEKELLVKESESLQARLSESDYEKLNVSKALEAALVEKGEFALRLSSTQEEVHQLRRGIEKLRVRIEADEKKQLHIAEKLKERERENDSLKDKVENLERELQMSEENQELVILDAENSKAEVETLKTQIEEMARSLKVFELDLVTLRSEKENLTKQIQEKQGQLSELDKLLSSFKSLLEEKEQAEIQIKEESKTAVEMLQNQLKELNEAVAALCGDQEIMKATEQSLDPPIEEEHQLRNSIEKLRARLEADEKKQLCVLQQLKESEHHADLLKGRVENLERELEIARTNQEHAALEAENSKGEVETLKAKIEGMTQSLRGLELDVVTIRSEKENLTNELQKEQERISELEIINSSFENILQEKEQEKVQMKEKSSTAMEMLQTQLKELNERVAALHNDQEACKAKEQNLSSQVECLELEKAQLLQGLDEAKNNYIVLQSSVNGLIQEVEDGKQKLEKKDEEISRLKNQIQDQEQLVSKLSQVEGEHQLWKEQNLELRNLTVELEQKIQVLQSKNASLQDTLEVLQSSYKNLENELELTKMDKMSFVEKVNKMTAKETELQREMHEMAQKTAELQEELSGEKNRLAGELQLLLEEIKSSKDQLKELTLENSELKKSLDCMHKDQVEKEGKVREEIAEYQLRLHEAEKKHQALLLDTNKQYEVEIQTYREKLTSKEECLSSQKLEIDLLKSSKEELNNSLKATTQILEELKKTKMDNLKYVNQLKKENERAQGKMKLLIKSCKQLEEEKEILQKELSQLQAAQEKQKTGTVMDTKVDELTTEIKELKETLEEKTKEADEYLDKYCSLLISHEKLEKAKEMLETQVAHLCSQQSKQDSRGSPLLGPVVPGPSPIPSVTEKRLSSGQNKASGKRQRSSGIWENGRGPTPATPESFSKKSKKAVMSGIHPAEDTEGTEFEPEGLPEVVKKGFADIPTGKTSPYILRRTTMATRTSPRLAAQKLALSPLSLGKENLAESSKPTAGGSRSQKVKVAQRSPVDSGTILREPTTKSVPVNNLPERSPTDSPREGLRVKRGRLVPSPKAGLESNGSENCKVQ", "UniProt Q99832": "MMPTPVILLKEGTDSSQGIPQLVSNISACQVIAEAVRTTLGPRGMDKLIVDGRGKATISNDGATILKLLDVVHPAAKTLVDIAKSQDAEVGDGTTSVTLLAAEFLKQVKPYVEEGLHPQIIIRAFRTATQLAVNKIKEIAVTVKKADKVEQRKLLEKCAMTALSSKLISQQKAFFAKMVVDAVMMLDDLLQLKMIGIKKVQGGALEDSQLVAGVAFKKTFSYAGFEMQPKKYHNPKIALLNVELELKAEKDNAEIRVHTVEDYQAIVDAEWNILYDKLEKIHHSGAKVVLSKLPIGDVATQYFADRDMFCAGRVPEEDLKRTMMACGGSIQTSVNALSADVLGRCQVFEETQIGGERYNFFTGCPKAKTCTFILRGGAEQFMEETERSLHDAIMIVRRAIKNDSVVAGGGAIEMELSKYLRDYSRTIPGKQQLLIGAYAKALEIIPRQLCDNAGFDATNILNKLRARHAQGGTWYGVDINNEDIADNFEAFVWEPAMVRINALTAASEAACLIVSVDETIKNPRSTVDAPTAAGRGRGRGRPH"}, "source": "the supplement of paper PMC12067093", "about": "“Discovery and optimisation of a covalent ligand for TRIM25 and its application to targeted protein ubiquitination” (Chemical Science, 2025)", "note": "The other results are listed elsewhere or left out.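 Note: competitive chemoproteomic profiling in live THP-1 cells with an iodoacetamide desthiobiotin (IA-DTB) probe, comparing probe-labelled peptide intensities in compound-treated cells against DMSO-treated controls.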", "data": [{"compound": "CC1Cc2ccccc2N1C(=O)C1CCCN(C1)C(=O)CCl (mixture of isomers) [TRIM25 ligand 11 (diastereomer mixture)]", "experiment": "probe-labelled cysteine peptide fold change vs DMSO (competition) (log2 fold change); higher = less target engagement (more negative = stronger competition)", "conditions": "10 µM; THP-1; incubation time: 4 h", "values": [{"target": "CEP170_Q5SW79_235_QVEEQSAAANEEVLFPFCR (UniProt Q5SW79)", "probe-labelled cysteine peptide fold change": 0.0682}, {"target": "CEP55_Q53EZ4_359_VALLEQQMQACTLDFENEK (UniProt Q53EZ4)", "probe-labelled cysteine peptide fold change": -0.00735}, {"target": "CDK12_Q9NYV4_1009_CTAEQTLQSDFLK (UniProt Q9NYV4)", "probe-labelled cysteine peptide fold change": -0.0309}, {"target": "CDC27_P30260_137_GSECYQK (UniProt P30260)", "probe-labelled cysteine peptide fold change": -0.0786}, {"target": "CCT6A_P40227_282_VCGDSDK (UniProt P40227)", "probe-labelled cysteine peptide fold change": 0.00986}, {"target": "CDK5_Q00535_94_YFDSCNGDLDPEIVK (UniProt Q00535)", "probe-labelled cysteine peptide fold change": 0.103}, {"target": "CCT8_P50990_347_LTPPVLEEMGHCDSVYLSEVGDTQVVVFKHEK (UniProt P50990)", "probe-labelled cysteine peptide fold change": -0.314}, {"target": "CENPF_P49454_339_CRDELVR (UniProt P49454)", "probe-labelled cysteine peptide fold change": 0.0543}, {"target": "CCT7_Q99832_511_INALTAASEAACLIVSVDETIK (UniProt Q99832)", "probe-labelled cysteine peptide fold change": 0.237}, {"target": "CCT4_P50991_379_ITGCASPGK (UniProt P50991)", "probe-labelled cysteine peptide fold change": -0.00035}, {"target": "CENPP_Q6IPU0_22_ACEDPPAPWEEK (UniProt Q6IPU0)", "probe-labelled cysteine peptide fold change": 0.0266}, {"target": "CDKAL1_Q5VV42_109_ITENASDADLWLLNSCTVK (UniProt Q5VV42)", "probe-labelled cysteine peptide fold change": 0.178}, {"target": "CENPT_Q96BT3_495_YFQHLCDDLEVFAAHAGR (UniProt Q96BT3)", "probe-labelled cysteine peptide fold change": 0.0247}, {"target": "CENPU_Q71F23_239_AIGSDTSDIVHIWCPEGMK (UniProt Q71F23)", "probe-labelled cysteine peptide fold change": 0.147}, {"target": "CDCA4_Q9BXL8_10_CVGHEEDVEGALAGLK (UniProt Q9BXL8)", "probe-labelled cysteine peptide fold change": -0.187}, {"target": "CDK5_Q00535_117_GLGFCHSR (UniProt Q00535)", "probe-labelled cysteine peptide fold change": 0.0521}, {"target": "CEP131_Q9UPN4_648_CEAVVAELK (UniProt Q9UPN4)", "probe-labelled cysteine peptide fold change": -0.0153}, {"target": "CDCA2_Q69YH5_790_DCHCLGDVLIENTK (UniProt Q69YH5)", "probe-labelled cysteine peptide fold change": -0.0355}, {"target": "CDKN2AIP_Q9NXV6_24_CDGETDK (UniProt Q9NXV6)", "probe-labelled cysteine peptide fold change": 0.0102}, {"target": "CCT5_P48643_429_VVYGGGAAEISCALAVSQEADK (UniProt P48643)", "probe-labelled cysteine peptide fold change": 0.0942}, {"target": "CELF2_O95319_85_GCCFVTFYTR (UniProt O95319)", "probe-labelled cysteine peptide fold change": -0.134}, {"target": "CD46_P15529_157_GSVAIWSGKPPICEK (UniProt P15529)", "probe-labelled cysteine peptide fold change": 0.061}]}, {"compound": "CC1Cc2ccccc2N1C(=O)C1CCCN(C1)C(=O)CCl (mixture of isomers) [TRIM25 ligand 11 (diastereomer mixture)]", "experiment": "probe-labelled cysteine peptide fold change vs DMSO (competition) (log2 fold change); higher = less target engagement (more negative = stronger competition)", "conditions": "50 µM; THP-1; incubation time: 4 h", "values": [{"target": "CEP350_Q5VT06_2910_RVTQQPCETLLAVPHTAEEVEILVHNAAEELWK (UniProt Q5VT06)", "probe-labelled cysteine peptide fold change": -0.0928}, {"target": "CDC16_Q13042_455_AIGNEVTVDKWEPLLNNLGHVCR (UniProt Q13042)", "probe-labelled cysteine peptide fold change": 0.108}, {"target": "CEP192_Q8TEP8_352_GIVPDLNSECASK (UniProt Q8TEP8)", "probe-labelled cysteine peptide fold change": -0.208}, {"target": "CEP250_Q9BV73_110_CESLAEVNTQLR (UniProt Q9BV73)", "probe-labelled cysteine peptide fold change": -0.0759}, {"target": "CDC42BPA_Q5VT25_121_AETACFR (UniProt Q5VT25)", "probe-labelled cysteine peptide fold change": 0.236}, {"target": "CDKN2C_P42773_141_GDTACDLAR (UniProt P42773)", "probe-labelled cysteine peptide fold change": 0.106}, {"target": "CD59_P13987_70_FEHCNFNDVTTR (UniProt P13987)", "probe-labelled cysteine peptide fold change": 0.0594}, {"target": "CCT8_P50990_36_NIQACK (UniProt P50990)", "probe-labelled cysteine peptide fold change": 0.046}, {"target": "CD38_P28907_82_HVDCQSVWDAFK (UniProt P28907)", "probe-labelled cysteine peptide fold change": 0.101}, {"target": "CENPI_Q92674_332_EMSLSDCLNR (UniProt Q92674)", "probe-labelled cysteine peptide fold change": -0.0842}, {"target": "CEP55_Q53EZ4_443_CNIQYPATEHR (UniProt Q53EZ4)", "probe-labelled cysteine peptide fold change": 0.00565}, {"target": "CEP192_Q8TEP8_396_QGAECPHQNK (UniProt Q8TEP8)", "probe-labelled cysteine peptide fold change": -0.188}, {"target": "CENPF_P49454_1947_LEYFSCDHQELLQR (UniProt P49454)", "probe-labelled cysteine peptide fold change": 0.0817}, {"target": "CDC45_O75419_31_VLLFVASDVDALCACK (UniProt O75419)", "probe-labelled cysteine peptide fold change": 0.304}, {"target": "CCT7_Q99832_326_RTMMACGGSIQTSVNALSADVLGR (UniProt Q99832)", "probe-labelled cysteine peptide fold change": 0.227}, {"target": "CDC27_P30260_179+184_FTSLQNFSNCLPNSCTTQVPNHSLSHR (UniProt P30260)", "probe-labelled cysteine peptide fold change": -0.046}, {"target": "CEP170_Q5SW79_235_QVEEQSAAANEEVLFPFCR (UniProt Q5SW79)", "probe-labelled cysteine peptide fold change": 0.0541}, {"target": "CEP55_Q53EZ4_359_VALLEQQMQACTLDFENEK (UniProt Q53EZ4)", "probe-labelled cysteine peptide fold change": 0.0446}, {"target": "CDK12_Q9NYV4_1009_CTAEQTLQSDFLK (UniProt Q9NYV4)", "probe-labelled cysteine peptide fold change": -0.0994}, {"target": "CDC27_P30260_137_GSECYQK (UniProt P30260)", "probe-labelled cysteine peptide fold change": -0.0611}, {"target": "CCT6A_P40227_282_VCGDSDK (UniProt P40227)", "probe-labelled cysteine peptide fold change": -0.0237}, {"target": "CDK5_Q00535_94_YFDSCNGDLDPEIVK (UniProt Q00535)", "probe-labelled cysteine peptide fold change": 0.101}, {"target": "CCT8_P50990_347_LTPPVLEEMGHCDSVYLSEVGDTQVVVFKHEK (UniProt P50990)", "probe-labelled cysteine peptide fold change": -0.162}]}]}
